# For some of these results: Only results without a clear call are listed here; the source files them as inconclusive. For some of these results: The inconclusive results got no clear call from the source; some entries with a clear call stand among them for comparison. Active and inactive are the calls of the source. Unless noted, the rule behind the calls is not given here.
# The chains behind the UniProt entries cited, without tags or fusion partners. Where a name states a change or a piece, a line headed by the entry shows the natural chain unless it says otherwise.
# UniProt P9WQ81: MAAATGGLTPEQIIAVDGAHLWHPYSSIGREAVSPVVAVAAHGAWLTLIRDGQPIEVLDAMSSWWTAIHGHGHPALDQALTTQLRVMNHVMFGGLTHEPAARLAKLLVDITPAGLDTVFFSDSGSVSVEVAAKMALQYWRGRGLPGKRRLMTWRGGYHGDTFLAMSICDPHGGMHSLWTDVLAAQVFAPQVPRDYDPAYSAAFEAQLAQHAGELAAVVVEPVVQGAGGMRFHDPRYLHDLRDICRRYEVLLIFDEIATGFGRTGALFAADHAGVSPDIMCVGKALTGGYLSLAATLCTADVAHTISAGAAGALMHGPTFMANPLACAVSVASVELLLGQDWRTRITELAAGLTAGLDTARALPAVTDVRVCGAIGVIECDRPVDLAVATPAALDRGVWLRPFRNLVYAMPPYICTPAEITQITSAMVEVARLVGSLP
# How the values were obtained:
# [1] = target: Adenosylmethionine-8-amino-7-oxononanoate aminotransferase (Mycobacterium tuberculosis (strain ATCC 25618 / H37Rv)) (UniProt P9WQ81); assay: inhibition of purified M. tuberculosis BioA – biochemical, plate reader, cherry-pick samples, dose response (AID 651683); conditions: purified M. tuberculosis BioA enzyme; at 10 µM (top of the series)
# [2] = fungal growth arrest, C. neoformans – Alamar Blue, cherry-picks, dose response (AID 686998;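 active = falling signal with fitted half-maximal potency no higher than twice the top valid tested dose; inconclusive = poor fit quality, or flat fit spanning -70% to -30%; inactive = potency over limit, rising signal, or flat fit inside 30%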); conditions: Cryptococcus neoformans growth, 24 h; at 35 µM (top of the series)
# [3] = general cell-killing toxicity readout – plate reader, dry powder samples, cytotoxicity control for PAX8 inhibitor project, dose response (AID 743021); conditions: cell line, non-specific cytotoxicity counter-screen; at 35 µM (top of the series)
# [4] = Fgf4 repression measured by qPCR – cell-based, mouse ESC, RT-qPCR, cherry-pick, esBAF inhibitor project, confirmation (AID 743177;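 active = Fgf4 expression under 0.8 fold of control in both repeat measurements at one or both tested doses; inconclusive = under 0.8 fold in just a single repeat measurement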;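 note: Fgf4 transcript normalised to actin in duplex TaqMan qPCR; cells exposed to compound for 24 h before lysis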); conditions: mouse ESC E14, Fgf4 mRNA qPCR fold change; at 33 µM; stronger effect = lower value
structure (smiles),measurement,setting,value
O=C(C1CC1)N1CC[C@@H]2[C@H](CO)Nc3ccc(Br)cc3[C@@H]21,"activity change, negative = inhibition",[1],inconclusive: -57.6%
O=c1[nH]c(CN2CC=C(c3ccccc3)CC2)nc2cc(C(F)(F)F)ccc12,"activity change, negative = inhibition",[2],inconclusive: -10.1%
C[C@H]1CN([C@@H](C)CO)C(=O)CCCn2nncc2CO[C@H]1CN(C)C(=O)Oc1cccc2ccccc12,"activity change, negative = inhibition",[2],inactive: 7.03%
CC(=CCOc1ccc2ccc(=O)oc2c1)C1=CC(=O)C(C)(C)O1,"activity change, negative = cytotoxicity",[3],inactive: 7.53%
O=C(Cc1cccnc1)N1CCCCN2[C@H](C1)[C@H](c1ccc(C#CC3CCCC3)cc1)[C@@H]2CO,"activity change, negative = cytotoxicity",[3],inactive: -29.3%
CCCCCn1c(=O)c(C(=O)Nc2ccccc2Cl)c(O)c2ccccc21,Fgf4 expression fold change,[4],inactive: 0.959
c1ccc(Nc2ccc3ccccc3c2)cc1,Fgf4 expression fold change,[4],inconclusive: 0.658

# Reference: PubChem BioAssay
